This passage reports cell number change and AC50 results from PubChem BioAssay AID2685 (National Center for Advancing Translational Sciences (NCATS), 2010).

This assay can be described thus: qHTS Assay for Lipid Storage Modulators in Drosophila S3 Cells.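 On cell number change: cells counted by Cell Tracker Red CMTPX staining in the red channel.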 To be noted: BODIPY lipid droplet fluorescence, 18-24 h; for cell number change: measured here: cell count max response, cells fed with added oleic acid. The essentials:
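Drosophila S3 cells got compounds at several concentrations plus oleic acid (400 uM solution). Laser-scanning cytometry with 488 nm excitation read lipid droplets at 500-530 nm and cells at 575-640 nm. Percent activity was relative to 20 uM Triacsin C.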
A general note: qHTS replaces the single test concentration by a dilution series.

Setting [1] is: measured here: lipid fluorescence (Fed channel) AC50, cells fed with added oleic acid.
Where [2] appears, read: measured here: cell number channel AC50, cells fed with added oleic acid.

This is one part of the list. These are further read-outs of the screen, such as a control signal, another cell line or another target. No call is given for them. Most of these compounds were active or inconclusive in the main read-out, so they are no random draw. Words in brackets tell the shape of the fitted curve; partial curves, single points and poor fits give uncertain potencies.

As for `COc1ccccc1CCNC(=O)C(=O)NCC1OCCCN1S(=O)(=O)c1ccc(F)cc1C` (stereo unspecified), the cell number change worked out at 11.1%. Also, the half-maximal activity concentration (AC50) under setting [1] was 6.51 µM [rising, partial curve, poor fit]. In the case of `COc1ccc(C2C3C=CCC(c4cccc(-c5ccc(C)cc5)c4)C3C(=O)N2Cc2ccccc2)cc1Cl` (stereo unspecified), the AC50 under setting [1] is 6.51 µM [falling, single point]. On to `Cn1c(SCc2ccc(Cl)cc2Cl)nc(C(F)(F)F)cc1=O`, for which the cell number change is -28.3%. In addition, under setting [2], the AC50 is 0.0731 µM [falling, full curve, poor fit]. Turning to `CCCCNS(=O)(=O)c1ccc(OC)c(Cl)c1Cl`, the cell number change is -6.97%. In the case of `COc1ccc(C2/C=C\CN(C(=O)Nc3ccccc3-c3ccccc3)CC(=O)N2Cc2ccc(F)cc2)cc1` (stereo unspecified), the cell number change turned out to be 22%. For the same molecule, under setting [1], the AC50 is 3.66 µM [rising, full curve, poor fit].

For `COc1cc(CNCCCCO)ccc1OCc1ccccc1F`, the cell number change was -15.7%. With `Cc1cc(C)c(C)c(S(=O)(=O)N2CCN(c3ncnc4ccccc34)CC2)c1C`, the cell number change was -26.3%. The AC50 under setting [1] is 0.366 µM [falling, full curve]. With `CCN(CC)CCn1c(=N)n(CC(O)c2ccc(OC)c(OC)c2)c2ccccc21` (stereo unspecified), the cell number change worked out at 0.298%. For the same molecule, the AC50 under setting [2] was 0.92 µM [falling, full curve]. Under setting [1], the AC50 is 1.3 µM [falling, partial curve]. For the molecule `Cc1ccc(S(=O)(=O)c2c(CO)c(-c3ccccc3)nn2C)cc1`, the cell number change was 18.2%. Moreover, under setting [1], the AC50 was 6.51 µM [falling, single point]. Regarding `CC(C)N(CCn1c(SCC(=O)Nc2cccnc2Cl)nc2ccccc2c1=O)C(C)C`, the cell number change was -2.89%. Further, under setting [1], the AC50 is 2.91 µM [rising, partial curve]. With `Cc1ccc(C2(C)NC(=O)N(CC(=O)Nc3cc(S(=O)(=O)N4CCCCC4)ccc3OC(C)C)C2=O)cc1` (stereo unspecified), the cell number change is -3.35%. With `Nc1c(C(=O)Nc2ccc3c(c2)OCCO3)nnn1Cc1cccc(Cl)c1`, the cell number change was -75%. For `CCC(=O)Nc1ccc(C(=O)OCc2ccccc2Cl)cc1`, the cell number change was 80.2%. Besides, the AC50 under setting [2] was 29.1 µM [rising, single point].

`O=C(Nc1ccc(CN2CCCCC2)cc1)c1c(F)c(F)c(F)c(F)c1F`: the cell number change is -5.54%. Moreover, the AC50 under setting [2] was 4.61 µM [falling, partial curve].

Turning to `CC(=O)C1=C(NC(=O)c2ccccc2F)C[C@@H]2[C@H]1C2(C)C`, the cell number change amounted to 4.58%. The AC50 under setting [1] was 13 µM [rising, partial curve]. In the case of `CCOc1cc(N2CCOCC2)c(OCC)cc1NC(=O)Cc1cn2ccsc2n1`, the cell number change was 2.29%. Also, the AC50 under setting [1] is 5.17 µM [rising, full curve, poor fit].

For the molecule `Cc1ccc(NC(=O)COC(=O)c2cccc(OC(F)F)c2)cc1S(=O)(=O)N1CCCCC1`, the cell number change is -14.6%. Besides, the AC50 under setting [2] was 0.00461 µM [rising, full curve, poor fit]. Further, the AC50 under setting [1] was 23.1 µM [falling, partial curve].

By AC50 is commonly meant the concentration at which the activity in the assay is half-maximal.
